± gives the standard deviation of the averaged measurements. The list shows a part of the results.
Compound: Nc1nc2c(ncn2[C@@H]2O[C@H](COP(=O)(O)OP(=O)(O)OP(=O)(O)O)[C@@H](O)[C@H]2O)c(=O)[nH]1 [guanosine triphosphate]
Experiment: NP40-soluble protein abundance relative to vehicle (solubility fold change) (ratio); higher = more soluble protein in presence of GTP
Method in brief: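 Each value is a fold change relative to the detergent-processed vehicle, calculated per replicate from vsn-normalised intensities. Jurkat crude lysate received eight concentrations (0.1 to 10 mM) for 10 min at room temperature and 3 min at 37 °C, then was solubilised in 0.8% NP40 with benzonase (60 min, 4 °C). The ultracentrifuged supernatant was TMT-labelled and run by LC-MS/MS in three independent experiments.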

Chains of the proteins cited; added tags and fusions are not shown. Lines headed by an entry give the natural chain unless they say otherwise; changes in a name come on top.
UniProt Q9GZM5: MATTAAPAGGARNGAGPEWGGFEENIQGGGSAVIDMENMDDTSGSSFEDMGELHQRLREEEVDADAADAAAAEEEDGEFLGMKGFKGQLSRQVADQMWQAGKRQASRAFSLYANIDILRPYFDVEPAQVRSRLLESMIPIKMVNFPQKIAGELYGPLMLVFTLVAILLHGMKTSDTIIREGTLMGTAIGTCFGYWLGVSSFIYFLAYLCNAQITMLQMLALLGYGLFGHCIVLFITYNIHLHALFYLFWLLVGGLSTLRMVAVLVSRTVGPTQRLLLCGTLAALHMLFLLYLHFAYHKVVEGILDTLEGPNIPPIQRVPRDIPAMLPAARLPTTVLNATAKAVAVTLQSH
UniProt A6NHR9: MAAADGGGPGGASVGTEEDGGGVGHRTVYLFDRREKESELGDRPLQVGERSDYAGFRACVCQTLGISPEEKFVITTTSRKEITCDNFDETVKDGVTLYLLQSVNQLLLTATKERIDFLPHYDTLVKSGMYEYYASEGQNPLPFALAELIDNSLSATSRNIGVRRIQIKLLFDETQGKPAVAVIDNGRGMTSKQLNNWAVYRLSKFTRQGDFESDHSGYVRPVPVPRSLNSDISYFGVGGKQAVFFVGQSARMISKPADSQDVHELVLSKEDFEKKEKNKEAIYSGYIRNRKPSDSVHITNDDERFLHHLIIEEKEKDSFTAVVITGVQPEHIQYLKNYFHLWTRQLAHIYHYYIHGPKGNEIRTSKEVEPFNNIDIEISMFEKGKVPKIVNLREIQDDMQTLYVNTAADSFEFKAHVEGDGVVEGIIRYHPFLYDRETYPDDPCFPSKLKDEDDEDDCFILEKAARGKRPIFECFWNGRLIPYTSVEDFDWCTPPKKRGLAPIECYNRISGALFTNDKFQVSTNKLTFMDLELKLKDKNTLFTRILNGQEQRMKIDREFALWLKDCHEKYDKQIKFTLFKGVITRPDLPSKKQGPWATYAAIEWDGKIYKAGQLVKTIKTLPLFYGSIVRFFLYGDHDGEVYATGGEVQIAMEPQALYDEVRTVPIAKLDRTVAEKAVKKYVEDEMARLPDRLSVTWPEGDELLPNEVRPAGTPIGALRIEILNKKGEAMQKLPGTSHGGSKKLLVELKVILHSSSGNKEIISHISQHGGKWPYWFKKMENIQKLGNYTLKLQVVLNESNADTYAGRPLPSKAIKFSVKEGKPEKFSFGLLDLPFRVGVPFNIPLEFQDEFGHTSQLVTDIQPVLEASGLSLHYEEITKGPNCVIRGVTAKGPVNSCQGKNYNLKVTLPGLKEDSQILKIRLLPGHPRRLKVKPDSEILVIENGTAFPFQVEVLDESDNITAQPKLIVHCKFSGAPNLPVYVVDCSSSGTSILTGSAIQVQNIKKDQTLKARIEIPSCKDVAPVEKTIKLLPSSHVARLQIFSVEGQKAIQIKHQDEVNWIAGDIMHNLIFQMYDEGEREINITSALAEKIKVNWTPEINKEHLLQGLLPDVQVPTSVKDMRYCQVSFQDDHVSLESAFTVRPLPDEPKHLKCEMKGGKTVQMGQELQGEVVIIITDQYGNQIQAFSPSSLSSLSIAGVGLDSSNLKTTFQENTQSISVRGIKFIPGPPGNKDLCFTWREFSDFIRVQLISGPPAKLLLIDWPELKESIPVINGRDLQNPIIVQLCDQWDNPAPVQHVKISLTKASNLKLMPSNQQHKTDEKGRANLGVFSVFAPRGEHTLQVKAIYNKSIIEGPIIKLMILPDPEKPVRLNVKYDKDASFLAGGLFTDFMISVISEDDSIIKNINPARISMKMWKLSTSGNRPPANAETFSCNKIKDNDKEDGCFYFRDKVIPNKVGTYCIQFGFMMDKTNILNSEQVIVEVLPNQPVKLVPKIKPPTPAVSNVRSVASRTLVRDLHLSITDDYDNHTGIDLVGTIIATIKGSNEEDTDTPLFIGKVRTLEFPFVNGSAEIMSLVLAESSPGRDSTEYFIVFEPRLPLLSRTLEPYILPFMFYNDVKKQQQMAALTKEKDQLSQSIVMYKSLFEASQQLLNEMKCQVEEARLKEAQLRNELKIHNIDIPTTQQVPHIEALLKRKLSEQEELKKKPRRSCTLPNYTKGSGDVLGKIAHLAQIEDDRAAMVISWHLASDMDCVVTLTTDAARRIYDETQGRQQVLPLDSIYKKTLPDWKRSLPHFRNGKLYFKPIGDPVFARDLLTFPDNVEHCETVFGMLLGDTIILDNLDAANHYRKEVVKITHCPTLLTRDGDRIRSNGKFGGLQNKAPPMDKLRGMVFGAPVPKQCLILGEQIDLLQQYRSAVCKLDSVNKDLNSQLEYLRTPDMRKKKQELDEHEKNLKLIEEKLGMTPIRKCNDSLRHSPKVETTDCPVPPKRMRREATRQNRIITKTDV
UniProt Q9NUQ7: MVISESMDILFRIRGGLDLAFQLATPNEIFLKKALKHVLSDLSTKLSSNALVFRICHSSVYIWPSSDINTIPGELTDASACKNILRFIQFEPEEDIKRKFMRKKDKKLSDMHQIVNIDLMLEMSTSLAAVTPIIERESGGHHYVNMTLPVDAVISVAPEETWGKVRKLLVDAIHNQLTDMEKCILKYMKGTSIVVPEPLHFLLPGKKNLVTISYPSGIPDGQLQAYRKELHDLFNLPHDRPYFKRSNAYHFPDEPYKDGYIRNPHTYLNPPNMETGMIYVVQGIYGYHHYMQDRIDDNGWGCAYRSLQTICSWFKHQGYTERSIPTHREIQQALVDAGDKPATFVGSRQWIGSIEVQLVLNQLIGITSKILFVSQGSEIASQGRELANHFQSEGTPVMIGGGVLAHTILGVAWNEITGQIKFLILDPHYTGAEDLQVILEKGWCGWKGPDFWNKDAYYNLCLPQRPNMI
UniProt Q9H446: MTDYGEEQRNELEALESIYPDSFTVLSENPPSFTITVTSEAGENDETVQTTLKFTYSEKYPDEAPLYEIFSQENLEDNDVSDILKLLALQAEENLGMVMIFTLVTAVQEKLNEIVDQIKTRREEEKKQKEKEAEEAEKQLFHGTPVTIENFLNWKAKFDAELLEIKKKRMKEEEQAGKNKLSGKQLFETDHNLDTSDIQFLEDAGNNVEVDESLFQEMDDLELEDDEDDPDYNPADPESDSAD
UniProt P14406, whole entry: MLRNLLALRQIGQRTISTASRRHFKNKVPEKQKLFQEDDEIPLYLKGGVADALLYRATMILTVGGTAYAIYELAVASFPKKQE
UniProt Q9Y483: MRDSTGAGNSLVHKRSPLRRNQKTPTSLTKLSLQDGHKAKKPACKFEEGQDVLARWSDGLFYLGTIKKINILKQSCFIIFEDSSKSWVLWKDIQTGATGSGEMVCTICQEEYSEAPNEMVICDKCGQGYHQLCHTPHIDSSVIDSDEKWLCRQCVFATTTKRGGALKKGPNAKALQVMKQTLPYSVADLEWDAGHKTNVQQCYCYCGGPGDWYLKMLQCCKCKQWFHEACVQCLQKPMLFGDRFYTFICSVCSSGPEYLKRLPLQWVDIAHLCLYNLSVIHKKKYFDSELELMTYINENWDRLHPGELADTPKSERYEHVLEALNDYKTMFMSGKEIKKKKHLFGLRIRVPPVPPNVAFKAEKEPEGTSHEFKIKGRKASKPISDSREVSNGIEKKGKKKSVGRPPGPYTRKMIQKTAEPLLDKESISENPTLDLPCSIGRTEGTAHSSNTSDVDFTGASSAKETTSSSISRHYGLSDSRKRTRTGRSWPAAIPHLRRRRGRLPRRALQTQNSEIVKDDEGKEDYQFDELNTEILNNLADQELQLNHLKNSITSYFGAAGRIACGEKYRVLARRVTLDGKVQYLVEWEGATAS
UniProt P35080, whole entry: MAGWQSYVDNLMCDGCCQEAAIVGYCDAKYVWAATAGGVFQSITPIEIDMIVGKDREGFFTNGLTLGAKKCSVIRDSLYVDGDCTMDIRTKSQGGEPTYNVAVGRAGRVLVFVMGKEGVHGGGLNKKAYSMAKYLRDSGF
UniProt Q03154: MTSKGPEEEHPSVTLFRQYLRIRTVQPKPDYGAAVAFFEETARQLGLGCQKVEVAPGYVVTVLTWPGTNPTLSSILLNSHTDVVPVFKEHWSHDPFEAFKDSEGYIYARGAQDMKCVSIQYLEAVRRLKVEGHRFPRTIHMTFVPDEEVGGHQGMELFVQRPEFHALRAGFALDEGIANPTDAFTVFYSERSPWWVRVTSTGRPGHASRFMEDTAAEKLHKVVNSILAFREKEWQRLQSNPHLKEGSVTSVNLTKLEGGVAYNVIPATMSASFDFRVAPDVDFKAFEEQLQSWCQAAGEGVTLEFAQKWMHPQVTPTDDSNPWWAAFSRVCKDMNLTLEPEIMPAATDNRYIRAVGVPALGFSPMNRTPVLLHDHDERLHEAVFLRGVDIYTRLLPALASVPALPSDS
UniProt Q9NQ29: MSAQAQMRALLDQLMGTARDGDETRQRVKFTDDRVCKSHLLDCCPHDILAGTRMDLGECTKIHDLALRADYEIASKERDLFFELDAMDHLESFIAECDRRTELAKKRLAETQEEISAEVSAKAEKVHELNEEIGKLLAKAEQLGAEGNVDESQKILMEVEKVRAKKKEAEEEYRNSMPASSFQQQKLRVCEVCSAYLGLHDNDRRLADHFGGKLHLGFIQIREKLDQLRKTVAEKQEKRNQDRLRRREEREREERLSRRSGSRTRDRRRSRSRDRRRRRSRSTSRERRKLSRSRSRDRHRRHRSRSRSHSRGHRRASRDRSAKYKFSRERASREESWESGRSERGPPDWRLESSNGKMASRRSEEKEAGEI
UniProt P61916: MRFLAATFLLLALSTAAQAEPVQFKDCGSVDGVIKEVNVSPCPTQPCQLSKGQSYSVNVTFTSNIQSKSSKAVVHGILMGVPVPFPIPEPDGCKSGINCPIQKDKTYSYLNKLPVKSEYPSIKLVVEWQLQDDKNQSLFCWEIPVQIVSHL
UniProt Q8N3P4: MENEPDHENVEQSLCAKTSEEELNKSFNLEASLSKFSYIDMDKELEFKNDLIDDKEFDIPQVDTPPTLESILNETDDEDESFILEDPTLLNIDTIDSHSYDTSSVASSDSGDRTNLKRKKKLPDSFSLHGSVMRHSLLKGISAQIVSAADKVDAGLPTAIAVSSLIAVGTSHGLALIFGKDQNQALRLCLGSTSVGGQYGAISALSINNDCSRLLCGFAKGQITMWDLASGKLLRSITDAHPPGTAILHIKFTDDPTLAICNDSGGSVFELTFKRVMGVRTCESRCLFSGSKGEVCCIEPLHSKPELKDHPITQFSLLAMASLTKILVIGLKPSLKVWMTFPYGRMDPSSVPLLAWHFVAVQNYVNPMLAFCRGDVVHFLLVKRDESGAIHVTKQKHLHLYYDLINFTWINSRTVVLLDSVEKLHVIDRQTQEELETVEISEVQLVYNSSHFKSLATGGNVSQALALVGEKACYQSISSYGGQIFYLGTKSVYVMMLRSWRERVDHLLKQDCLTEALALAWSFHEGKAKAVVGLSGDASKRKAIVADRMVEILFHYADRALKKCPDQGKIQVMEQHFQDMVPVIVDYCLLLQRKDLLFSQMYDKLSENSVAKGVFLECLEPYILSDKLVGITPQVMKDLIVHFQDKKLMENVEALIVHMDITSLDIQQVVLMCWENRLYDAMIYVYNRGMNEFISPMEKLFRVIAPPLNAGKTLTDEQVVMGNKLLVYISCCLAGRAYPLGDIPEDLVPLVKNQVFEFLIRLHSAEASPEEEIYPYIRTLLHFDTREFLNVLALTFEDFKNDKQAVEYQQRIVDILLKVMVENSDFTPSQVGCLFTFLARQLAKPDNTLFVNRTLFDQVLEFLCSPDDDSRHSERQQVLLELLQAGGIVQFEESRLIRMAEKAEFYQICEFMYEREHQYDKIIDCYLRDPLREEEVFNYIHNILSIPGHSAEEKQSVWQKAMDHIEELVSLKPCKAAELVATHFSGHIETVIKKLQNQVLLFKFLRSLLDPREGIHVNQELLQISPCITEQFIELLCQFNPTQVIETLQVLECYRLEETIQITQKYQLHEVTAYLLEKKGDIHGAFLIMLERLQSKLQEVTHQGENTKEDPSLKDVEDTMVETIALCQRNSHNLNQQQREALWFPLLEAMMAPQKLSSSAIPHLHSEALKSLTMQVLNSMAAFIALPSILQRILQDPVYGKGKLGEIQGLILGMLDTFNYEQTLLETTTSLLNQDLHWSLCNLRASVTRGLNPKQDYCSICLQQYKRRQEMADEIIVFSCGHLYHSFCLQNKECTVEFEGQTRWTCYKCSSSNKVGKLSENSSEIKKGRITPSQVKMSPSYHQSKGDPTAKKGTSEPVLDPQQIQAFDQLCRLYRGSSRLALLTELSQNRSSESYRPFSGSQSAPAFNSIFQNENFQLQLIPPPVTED
UniProt Q96IZ7: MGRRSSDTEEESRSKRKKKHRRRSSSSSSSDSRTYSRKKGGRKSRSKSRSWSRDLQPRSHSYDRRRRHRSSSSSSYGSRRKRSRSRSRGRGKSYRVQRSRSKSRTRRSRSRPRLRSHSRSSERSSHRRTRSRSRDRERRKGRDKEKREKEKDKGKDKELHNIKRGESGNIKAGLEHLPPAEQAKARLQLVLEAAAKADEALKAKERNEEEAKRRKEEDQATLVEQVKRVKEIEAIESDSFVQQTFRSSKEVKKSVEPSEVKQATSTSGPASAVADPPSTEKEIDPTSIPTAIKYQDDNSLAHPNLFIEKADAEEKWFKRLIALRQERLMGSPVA

Target	NP40-soluble protein abundance (concentration: 0.1mM)	NP40-soluble protein abundance (concentration: 0.5mM)	NP40-soluble protein abundance (concentration: 1mM)	NP40-soluble protein abundance (concentration: 2mM)	NP40-soluble protein abundance (concentration: 4mM)	NP40-soluble protein abundance (concentration: 6mM)	NP40-soluble protein abundance (concentration: 8mM)	NP40-soluble protein abundance (concentration: 10mM)
E5RJF8 and related entries (UniProt O15182)	0.945 ± 0.051	0.965 ± 0.05	1 ± 0.039	0.949 ± 0.063	0.943 ± 0.015	1 ± 0.025	0.993 ± 0.077	0.965 ± 0.019
B4DHN5 and related entries (UniProt O00560)	1.01 ± 0.094	0.989 ± 0.084	0.945 ± 0.089	0.971 ± 0.037	0.929 ± 0.1	0.985 ± 0.044	0.931 ± 0.13	0.954 ± 0.072
D6RFI3 and related entries (UniProt Q9GZM5)	1.146 ± 0.0073	1.05 ± 0.047	1.12 ± 0.083	1.013 ± 0.0078	0.997 ± 0.09	1.02 ± 0.053	1.04 ± 0.085	1.02 ± 0.15
A6NHB5 and related entries (UniProt Q14202)	1.08 ± 0.056	1.12 ± 0.075	1.18 ± 0.092	1.31 ± 0.14	1.37 ± 0.16	1.4 ± 0.15	1.46 ± 0.15	1.42 ± 0.16
A6PW80 and related entries (UniProt P68104)	0.979 ± 0.033	0.987 ± 0.031	0.961 ± 0.032	0.909 ± 0.015	0.8877 ± 0.0079	0.921 ± 0.015	0.883 ± 0.026	0.868 ± 0.023
SMCHD1 (UniProt A6NHR9)	1.05 ± 0.04	1.06 ± 0.055	0.999 ± 0.029	1.03 ± 0.07	1.04 ± 0.056	1.04 ± 0.043	1.02 ± 0.051	1.01 ± 0.098
D6RIF6 and related entries (UniProt Q9P270)	1.02 ± 0.043	0.944 ± 0.019	1.04 ± 0.06	1.07 ± 0.024	1.06 ± 0.034	1.06 ± 0.033	1.11 ± 0.073	1.13 ± 0.058
D6RGX2 and related entries (UniProt Q9NUQ7)	0.942 ± 0.024	0.9343 ± 4.9e-05	0.881 ± 0.025	0.881 ± 0.03	0.843 ± 0.065	0.825 ± 0.016	0.872 ± 0.094	0.807 ± 0.12
A8MZH8 and related entries (UniProt P53801)	0.992 ± 0.18	1.05 ± 0.18	1.07 ± 0.15	1.05 ± 0.15	1 ± 0.19	1.05 ± 0.18	1.06 ± 0.17	1.07 ± 0.11
C9JPE1 and related entries (UniProt O43772)	1.08 ± 0.11	1.07 ± 0.074	0.925 ± 0.066	0.951 ± 0.11	0.866 ± 0.12	0.895 ± 0.089	0.859 ± 0.09	0.871 ± 0.16
B9EGA3 and related entries (UniProt Q92925)	1.03 ± 0.038	1.06 ± 0.052	1.11 ± 0.12	1.16 ± 0.17	1.24 ± 0.2	1.17 ± 0.2	1.17 ± 0.19	1.19 ± 0.19
E5RGN3 and related entries (UniProt O00244)	0.855 ± 0.11	0.884 ± 0.083	1 ± 0.14	1 ± 0.1	0.887 ± 0.053	0.988 ± 0.067	0.866 ± 0.11	1.04 ± 0.13
B7Z9U0 and related entries (UniProt Q9UFF9)	1.04 ± 0.15	0.977 ± 0.13	1.12 ± 0.19	1.09 ± 0.19	1.16 ± 0.18	1.1 ± 0.17	1.2 ± 0.27	1.21 ± 0.22
E5RGS5 and related entries (UniProt Q9H446)	0.955 ± 0.18	0.964 ± 0.12	0.903 ± 0.13	0.886 ± 0.15	0.852 ± 0.13	0.852 ± 0.12	0.865 ± 0.094	0.847 ± 0.1
E5RFJ1 and related entries (UniProt Q96MF7)	1.01 ± 0.059	1.01 ± 0.056	1.05 ± 0.015	1.02 ± 0.1	0.98 ± 0.093	1 ± 0.054	1.05 ± 0.04	1.05 ± 0.077
D6RGV5 and related entries (UniProt P14406)	0.975 ± 0.14	0.909 ± 0.079	1.14 ± 0.17	1.14 ± 0.13	1.19 ± 0.11	1.13 ± 0.07	1.02 ± 0.15	1.21 ± 0.23
B4DZG1 and related entries (UniProt Q9Y483)	1.11 ± 0.061	1.09 ± 0.032	1.16 ± 0.044	1.26 ± 0.074	1.4 ± 0.068	1.45 ± 0.095	1.64 ± 0.2	1.78 ± 0.18
C9J8R4 and related entries (UniProt Q96GG9)	0.935 ± 0.042	0.919 ± 0.034	0.903 ± 0.049	0.889 ± 0.072	0.867 ± 0.048	0.87 ± 0.044	0.842 ± 0.077	0.84 ± 0.084
C9J0J7 and related entries (UniProt P35080)	0.97 ± 0.069	0.936 ± 0.059	0.945 ± 0.066	0.902 ± 0.057	0.929 ± 0.12	0.895 ± 0.092	0.914 ± 0.11	0.898 ± 0.086
C9JMV9 and related entries (UniProt Q03154+C9JMV9)	1.03 ± 0.012	1.03 ± 0.011	0.97 ± 0.078	0.924 ± 0.036	0.954 ± 0.019	0.933 ± 0.031	0.94 ± 0.05	0.956 ± 0.12
B8ZZ10 and related entries (UniProt Q9NQ29)	1.26 ± 0.045	1.75 ± 0.11	1.91 ± 0.18	1.95 ± 0.12	1.98 ± 0.12	2.09 ± 0.14	2.21 ± 0.28	2.22 ± 0.28
C9JYN0 and related entries (UniProt Q16563)	0.958 ± 0.069	0.931 ± 0.084	0.919 ± 0.028	0.925 ± 0.079	0.929 ± 0.045	0.905 ± 0.062	0.836 ± 0.083	0.895 ± 0.073
E7EMS2 and related entries (UniProt P61916)	0.885 ± 0.028	0.89 ± 0.059	0.945 ± 0.045	0.871 ± 0.076	0.843 ± 0.078	0.896 ± 0.1	0.87 ± 0.097	0.886 ± 0.05
E7EMD6 and related entries (UniProt O43572)	0.999 ± 0.048	0.99 ± 0.069	0.965 ± 0.037	0.953 ± 0.089	0.996 ± 0.038	0.931 ± 0.071	0.926 ± 0.048	0.903 ± 0.02
C9JJN9 and related entries (UniProt Q8N3P4)	1.08 ± 0.054	1.04 ± 0.1	0.974 ± 0.083	1.04 ± 0.1	1.01 ± 0.074	0.99 ± 0.038	1.02 ± 0.062	1.02 ± 0.055
C9J713 and related entries (UniProt Q96IZ7)	1.01 ± 0.061	1.13 ± 0.087	1.21 ± 0.064	1.05 ± 0.074	0.968 ± 0.037	0.975 ± 0.059	1.18 ± 0.072	1.16 ± 0.16

A few values from above:
In NP40-soluble protein abundance (concentration: 0.5mM), SMCHD1 (UniProt A6NHR9) is listed with 1.06 ± 0.055
In NP40-soluble protein abundance (concentration: 2mM), E7EMD6 and related entries (UniProt O43572) is listed with 0.953 ± 0.089
